Assays:
[1] = test system: primary HCC tissue samples; assay: Identification and label-free LC-MS relative quantitation of HLA-presented peptides (presentation profiles/scores), HCC versus normal tissues; set-up: species or system human; key to PeptidePresentation (presentation score): very highly over-presented on tumors compared to a panel of normal tissues (+++); highly over-presented on tumors compared to a panel of normal tissues (++); over-presented on tumors compared to a panel of normal tissues (+); settings: for over-presentation in HCC compared with normal tissues: FIG. 1 presentation profiles; for PeptidePresentation (presentation score): HCC tumors compared to a panel of normal tissues
[2] = test system: tumor samples of other tumor types; assay: Over-presentation of peptides on additional tumor types versus normal tissues (LC-MS); set-up: species or system human; settings: for number of cancer tissues on which the peptide was presented / number of cell-lines on which the peptide was presented / number of normal tissues on which the peptide was presented: FIG. 1, only samples on which the peptide was presented; for Additional Entities (additional tumor types on which the peptide was found over-presented) / Other relevant organs/diseases (additional tumor types on which the peptide was found over-presented): over-presentation on more than 5% of the measured tumor samples, or presentation on more than 5% with ratio of geometric means tumor vs normal tissues larger than 3

| Substance | over-presentation in HCC compared with normal tissues [1] | number of cancer tissues on which the peptide was presented [2] | number of cell-lines on which the peptide was presented [2] | number of normal tissues on which the peptide was presented [2] | Additional Entities (additional tumor types on which the peptide was found over-presented) [2] | PeptidePresentation (presentation score) [1] | Other relevant organs/diseases (additional tumor types on which the peptide was found over-presented) [2] | number of primary cultures on which the peptide was presented ([2]; FIG. 1K) |
| --- | --- | --- | --- | --- | --- | --- | --- | --- |
| 104 (SVWFGPKEV; listed as Homo sapiens) [compound 104] | over-presentation | 16 | 9 | 1 | SCLC, Melanoma, Urinary bladder cancer, PC |  |  |  |
| 111 (TVMDIDTSGTFNV; listed as Homo sapiens) [compound 111] |  |  |  |  | SCLC, CRC, CLL, Melanoma, OC, Urinary bladder cancer, Gallbladder Cancer, Bile Duct Cancer, NHL | + |  |  |
| 119 (YLDKNLTVSV; listed as Homo sapiens) [compound 119] |  |  |  |  |  | + | Kidney |  |
| 121 (YLITGNLEKL; listed as Homo sapiens) [compound 121] |  |  |  |  | NSCLC, CLL, BRCA, Melanoma, OC, Esophageal Cancer, Urinary bladder cancer, Uterine Cancer, Gallbladder Cancer, Bile Duct Cancer, NHL, PC | + | Kidney, Colon, Rectum, Pancreas |  |
| 123 (YLWDLDHGFAGV; listed as Homo sapiens) [compound 123] |  |  |  |  | NSCLC, SCLC, PrC, BRCA, Melanoma, OC; Esophageal Cancer, AML, NHL | ++ | Brain, Colon, Rectum |  |
| 127 (VLIGSNHSL; listed as Homo sapiens) [compound 127] |  |  |  |  | PC, BRCA, Esophageal Cancer, Urinary bladder cancer, Uterine Cancer, AML | + | Colon, Rectum |  |
| 128 (GLAFSLNGV; listed as Homo sapiens) [compound 128] |  |  |  |  | Melanoma, Uterine Cancer, Gallbladder Cancer, Bile Duct Cancer | + |  |  |
| 129 (SQADVIPAV; listed as Homo sapiens) [compound 129] |  |  |  |  | Urinary bladder cancer | + |  |  |
| 131 (ALDSGAFQSV; listed as Homo sapiens) [compound 131] |  |  |  |  | CRC, Melanoma, Gallbladder Cancer, Bile Duct Cancer | ++ |  |  |
| 133 (ALLEMDARL; listed as Homo sapiens) [compound 133] |  |  |  |  | NSCLC, SCLC, BRCA, MCC, Melanoma, OC, Esophageal Cancer, Urinary bladder cancer, Uterine Cancer, Gallbladder Cancer, Bile Duct Cancer, AML, NHL | + | Kidney, Brain, Colon, Rectum |  |
| 134 (ALLETNPYLL; listed as Homo sapiens) [compound 134] |  |  |  |  | Urinary bladder cancer, Gallbladder Cancer, Bile Duct Cancer | ++ | Brain |  |
| 135 (ALLGKIEKV; listed as Homo sapiens) [compound 135] |  |  |  |  | NSCLC, SCLC, BRCA, OC, Gallbladder Cancer, Bile Duct Cancer | + | Brain, Pancreas |  |
| 137 (ALPTVLVGV; listed as Homo sapiens) [compound 137] |  |  |  |  | NSCLC, GC, BRCA, Melanoma, Esophageal Cancer, Urinary bladder cancer, Uterine Cancer, Gallbladder Cancer, Bile Duct Cancer, PC | ++ | Kidney, Brain, Colon, Rectum |  |
| 139 (ALSSKPAEV; listed as Homo sapiens) [compound 139] |  |  |  |  | PrC, OC, Uterine Cancer | + | Colon, Rectum, Pancreas |  |
| 144 (FIQLITGV; listed as Homo sapiens) [compound 144] |  |  |  |  | NSCLC, Brain Cancer, Urinary bladder cancer | + | Pancreas |  |
| 147 (GLAPGGLAVV; listed as Homo sapiens) [compound 147] |  |  |  |  | NSCLC, SCLC, PrC, BRCA, Melanoma, OC, Esophageal Cancer, Urinary bladder cancer, Uterine Cancer | + | Brain |  |
| 151 (HLAKVTAEV; listed as Homo sapiens) [compound 151] |  |  |  |  | SCLC, OC, Urinary bladder cancer | + |  |  |
| 154 (KLTDHLKYV; listed as Homo sapiens) [compound 154] |  |  |  |  | SCLC | + |  |  |

| Substance | over-presentation in HCC compared with normal tissues [1] | number of cancer tissues on which the peptide was presented [2] | number of cell-lines on which the peptide was presented [2] | number of normal tissues on which the peptide was presented [2] | Additional Entities (additional tumor types on which the peptide was found over-presented) [2] | PeptidePresentation (presentation score) [1] | Other relevant organs/diseases (additional tumor types on which the peptide was found over-presented) [2] | number of primary cultures on which the peptide was presented ([2]; FIG. 1K) |
| --- | --- | --- | --- | --- | --- | --- | --- | --- |
| 156 (LLFPHPVNQV; listed as Homo sapiens) [compound 156] | over-presentation | 34 | 7 | 1 | NSCLC, SCLC, OC, Esophageal Cancer, Urinary bladder cancer |  |  | 2 |
| 161 (RLLDEQFAV; listed as Homo sapiens) [compound 161] |  |  |  |  | SCLC, BRCA | + | Brain |  |
| 164 (RMLIKLLEV; listed as Homo sapiens) [compound 164] |  |  |  |  | SCLC, CRC | + |  |  |
| 169 (SLFEWFHPL; listed as Homo sapiens) [compound 169] |  |  |  |  | NSCLC, Gallbladder Cancer, Bile Duct Cancer | + | Kidney, Brain, Colon, Rectum |  |
| 170 (SLHNGVIQL; listed as Homo sapiens) [compound 170] |  |  |  |  | NSCLC, Urinary bladder cancer, Uterine Cancer, NHL | + | Kidney |  |
| 172 (SLLNFLQHL; listed as Homo sapiens) [compound 172] |  |  |  |  | AML | + | Kidney, Colon, Rectum, CLL |  |
| 173 (SLTSEIHFL; listed as Homo sapiens) [compound 173] |  |  |  |  | Uterine Cancer, NHL | + | CLL |  |
| 176 (TLGQIWDV; listed as Homo sapiens) [compound 176] |  |  |  |  | NSCLC, GC, Melanoma, Urinary bladder cancer, PC | + | Brain, Colon, Rectum, Pancreas |  |
| 177 (VLDEPYEKV; listed as Homo sapiens) [compound 177] |  |  |  |  |  | + | Kidney |  |
| 179 (YIHNILYEV; listed as Homo sapiens) [compound 179] |  |  |  |  | CLL, NHL | ++ | Brain |  |
| 180 (YLGPHIASVTL; listed as Homo sapiens) [compound 180] |  |  |  |  | Melanoma | ++ |  |  |
| 181 (YLLEKFVAV; listed as Homo sapiens) [compound 181] |  |  |  |  | NSCLC, SCLC, CLL, OC, Urinary bladder cancer, AML, NHL | + | Colon, Rectum |  |
| 184 (VVLDGGQIVTV; listed as Homo sapiens) [compound 184] |  |  |  |  |  | + | Brain |  |
| 185 (ALFPALRPGGFQA; listed as Homo sapiens) [compound 185] |  |  |  |  | Gallbladder Cancer, Bile Duct Cancer | ++ |  |  |
| 186 (VLLAQIIQV; listed as Homo sapiens) [compound 186] |  |  |  |  | Melanoma, OC, Uterine Cancer, Gallbladder Cancer, Bile Duct Cancer | + | Kidney, Brain, Colon, Rectum |  |
| 187 (SYPTFFPRF; listed as Homo sapiens) [compound 187] |  |  |  |  | NSCLC, PrC | + | Kidney, Brain |  |
| 189 (AFSPDSHYLLF; listed as Homo sapiens) [compound 189] |  |  |  |  | NSCLC, PrC | +++ | Kidney, Brain |  |

— patent US10064926B2, “Peptides and combination of peptides for use in immunotherapy against hepatocellular carcinoma (HCC) and other cancers” (Immatics biotechnologies GmbH, priority 2014, dated 2018)
